PubChem BioAssay AID1259405 | NCATS – 2018
Test: 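Silenced genes that increase secreted GFP made by CHO cells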 (primary screen). System: Chinese hamster CHO-K1 ovary cells with stable secreted eGFP expression. Reagents: single siRNA against mouse genes, 0.8 pmol siRNA per well (2 µl of 400 nM stock). Time to read-out: 3 days. Detection: 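Percent of the per-plate non-targeting control median for intracellular GFP per well by laser scanning cytometry and for cell viability by ATP luminescence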. Scale: GFP, % of control: higher = more GFP per well, higher productivity; viability (ATP), % of control: higher = more viable cells (more ATP). Call rule: 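Called active when intracellular GFP, relative to negative control, is at or above 120%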.
This is a random part of about 50,000 reagents tested. About 4,000 of them (8%) were called active. 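Mouse siRNA library applied to hamster cells; one well for each siRNA.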 Reagents against one gene are numbered here.

Prdm5 (GeneID 70779) #1 scored GFP, % of control 129; viability (ATP), % of control 91.1; active.
Prdm5 (GeneID 70779) #2 showed GFP, % of control 88.5; viability (ATP), % of control 96.5; inactive.
Silencing of Prdm5 (GeneID 70779) #3 came out at: GFP, % of control 87.7; viability (ATP), % of control 122; inactive.
For Pigp (GeneID 56176) #1, the values are GFP, % of control 86.6; viability (ATP), % of control 76.9; inactive.
With knock-down of Pigp (GeneID 56176) #2, the record shows GFP, % of control 105; viability (ATP), % of control 90.2; inactive.
After knock-down of Pigp (GeneID 56176) #3, the record shows GFP, % of control 88.1; viability (ATP), % of control 74.1; inactive.
Alox5 (GeneID 11689) #1 showed GFP, % of control 70.8; viability (ATP), % of control 72.3; inactive.
With knock-down of Alox5 (GeneID 11689) #2 the results were GFP, % of control 75.5; viability (ATP), % of control 82.5; inactive.
Depletion of Alox5 (GeneID 11689) #3 resulted in: GFP, % of control 25; viability (ATP), % of control 48; inactive.
With knock-down of Rtl8c (GeneID 72865) #1, the screen gave GFP, % of control 82; viability (ATP), % of control 57.5; inactive.
Against Rtl8c (GeneID 72865) #2, the entry reads GFP, % of control 72.4; viability (ATP), % of control 102; inactive.
Rtl8c (GeneID 72865) #3 showed GFP, % of control 102; viability (ATP), % of control 78.2; inactive.
Against Vmn1r209 (GeneID 432736) #1, the entry reads GFP, % of control 134; viability (ATP), % of control 92.6; active.
Vmn1r209 (GeneID 432736) #2 scored GFP, % of control 132; viability (ATP), % of control 42.9; active.
Vmn1r209 (GeneID 432736) #3 scored GFP, % of control 89.6; viability (ATP), % of control 87.8; inactive.
Against Ankrd24 (GeneID 70615) #1, the entry reads GFP, % of control 61.5; viability (ATP), % of control 79; inactive.
For Ankrd24 (GeneID 70615) #2, the entry reads GFP, % of control 44.8; viability (ATP), % of control 46.1; inactive.
With knock-down of Ankrd24 (GeneID 70615) #3, the record shows GFP, % of control 84.4; viability (ATP), % of control 86.2; inactive.
Hivep2 (GeneID 15273) #1 gave GFP, % of control 70.4; viability (ATP), % of control 79.2; inactive.
Depletion of Hivep2 (GeneID 15273) #2 resulted in: GFP, % of control 52.7; viability (ATP), % of control 69.3; inactive.
Hivep2 (GeneID 15273) #3 scored GFP, % of control 55.8; viability (ATP), % of control 88.1; inactive.
Zfp943 (GeneID 74670) #1 scored GFP, % of control 108; viability (ATP), % of control 78.3; inactive.
With knock-down of Zfp943 (GeneID 74670) #2, the screen gave GFP, % of control 44.8; viability (ATP), % of control 51.6; inactive.
Zfp943 (GeneID 74670) #3 showed GFP, % of control 104; viability (ATP), % of control 101; inactive.
Knock-down of Krt90 (GeneID 239673) #1 resulted in: GFP, % of control 46.6; viability (ATP), % of control 58; inactive.
Silencing of Krt90 (GeneID 239673) #2 gave: GFP, % of control 81.3; viability (ATP), % of control 88.7; inactive.
Against Krt90 (GeneID 239673) #3, the values are GFP, % of control 149; viability (ATP), % of control 33.3; active.
Fcgr3 (GeneID 14131) #1 showed GFP, % of control 113; viability (ATP), % of control 103; inactive.
After knock-down of Fcgr3 (GeneID 14131) #2, the screen gave GFP, % of control 57.2; viability (ATP), % of control 73.5; inactive.
After knock-down of Fcgr3 (GeneID 14131) #3, the screen gave GFP, % of control 81.3; viability (ATP), % of control 54.6; inactive.
Silencing of Gsta1 (GeneID 14857) #1 resulted in: GFP, % of control 78.8; viability (ATP), % of control 112; inactive.
With knock-down of Gsta1 (GeneID 14857) #2, the screen gave GFP, % of control 82.3; viability (ATP), % of control 107; inactive.
After knock-down of Gsta1 (GeneID 14857) #3 the results were GFP, % of control 76.6; viability (ATP), % of control 63.5; inactive.
Knock-down of Pfkfb2 (GeneID 18640) #1 gave: GFP, % of control 91.3; viability (ATP), % of control 93; inactive.
Depletion of Pfkfb2 (GeneID 18640) #2 came out at: GFP, % of control 72.6; viability (ATP), % of control 74.4; inactive.
After knock-down of Pfkfb2 (GeneID 18640) #3, the screen gave GFP, % of control 77.8; viability (ATP), % of control 72.8; inactive.
With knock-down of Tnip2 (GeneID 231130) #1 the results were GFP, % of control 61.1; viability (ATP), % of control 64; inactive.
Knock-down of Tnip2 (GeneID 231130) #2 resulted in: GFP, % of control 120; viability (ATP), % of control 128; active.
With knock-down of Tnip2 (GeneID 231130) #3, the record shows GFP, % of control 128; viability (ATP), % of control 163; active.
After knock-down of Pex12 (GeneID 103737) #1, the record shows GFP, % of control 53.8; viability (ATP), % of control 74.8; inactive.
Pex12 (GeneID 103737) #2 showed GFP, % of control 58.4; viability (ATP), % of control 73.4; inactive.
For Pex12 (GeneID 103737) #3 the deposit lists GFP, % of control 189; viability (ATP), % of control 140; active.
Srrm1 (GeneID 51796) #1 gave GFP, % of control 124; viability (ATP), % of control 83; active.
Against Srrm1 (GeneID 51796) #2, the entry reads GFP, % of control 55.5; viability (ATP), % of control 59.1; inactive.
With knock-down of Hc (GeneID 15139) #1, the record shows GFP, % of control 42; viability (ATP), % of control 41.6; inactive.
After knock-down of Hc (GeneID 15139) #2 the results were GFP, % of control 65.7; viability (ATP), % of control 85.4; inactive.
After knock-down of Hc (GeneID 15139) #3, the screen gave GFP, % of control 85.7; viability (ATP), % of control 99.6; inactive.
For Atp5f1d (GeneID 66043) #1 the deposit lists GFP, % of control 52.9; viability (ATP), % of control 65.3; inactive.
Atp5f1d (GeneID 66043) #2 gave GFP, % of control 75.2; viability (ATP), % of control 96.4; inactive.
Depletion of Atp5f1d (GeneID 66043) #3 resulted in: GFP, % of control 40.1; viability (ATP), % of control 75.7; inactive.
After knock-down of Or5w10 (GeneID 258346) #1, the record shows GFP, % of control 27.1; viability (ATP), % of control 23.4; inactive.
Against Or5w10 (GeneID 258346) #2 the deposit lists GFP, % of control 63.4; viability (ATP), % of control 61.3; inactive.
Silencing of Or5w10 (GeneID 258346) #3 gave: GFP, % of control 77; viability (ATP), % of control 84.4; inactive.

Hits, among the entries above:
Prdm5 (GeneID 70779) #1: GFP, % of control = 129; viability (ATP), % of control = 91.1; Call = active
Vmn1r209 (GeneID 432736) #1: GFP, % of control = 134; viability (ATP), % of control = 92.6; Call = active
Vmn1r209 (GeneID 432736) #2: GFP, % of control = 132; viability (ATP), % of control = 42.9; Call = active
Krt90 (GeneID 239673) #3: GFP, % of control = 149; viability (ATP), % of control = 33.3; Call = active
Tnip2 (GeneID 231130) #2: GFP, % of control = 120; viability (ATP), % of control = 128; Call = active
Tnip2 (GeneID 231130) #3: GFP, % of control = 128; viability (ATP), % of control = 163; Call = active
Pex12 (GeneID 103737) #3: GFP, % of control = 189; viability (ATP), % of control = 140; Call = active
Srrm1 (GeneID 51796) #1: GFP, % of control = 124; viability (ATP), % of control = 83; Call = active
